# According to PubChem BioAssay AID504444 (National Center for Advancing Translational Sciences (NCATS), 2011):
# Values joined by “and” are separate entries in the source; they are usually repeats but may differ in a detail not shown here. Equal entries are not always repeated. Out of some 360,000 compounds screened, about 7,500 (2.1%) were called active. The inconclusive results got no clear call from the source; some entries with a clear call stand among them for comparison. Calls come from the whole dose curve; as a rule, active = well fitted inhibition curve with a large enough effect; inconclusive = small, poorly fitted or top-dose-only effect, or effect the other way; inactive = flat fitted curve, though single readings scatter. A potency beside an inconclusive call is a rough fit, not a confirmed value.
# Assay: Nrf2 qHTS screen for inhibitors; note: nearly all actives have a fitted effect of over 60% in size
# Details: A549 ARE-Fluc reporter, luciferase luminescence, 18-24 h; series mostly up to 46 µM
# Method in brief: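 Nrf2 activity is the BugLite luminescence, read 15 min after reagent at room temperature, following CellTiter-Fluor cytotoxicity readout (30 min, 37C). Compound titrations were applied for 18-24 h to 5000 A549 ARE_Fluc cells/well in 5% FBS OPTI-MEM.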
# Potency is the fitted concentration of half-maximal effect.
row,Compound,Potency
1,COc1ccc(OC)c(-c2cc(C(=O)Nc3c(C)nn(Cc4ccccc4)c3C)no2)c1,active: 14.6 µM
2,COc1cc2cnc(-c3ccsc3)c(-c3ccc(F)cc3)c2cc1OC,inactive
3,Cc1cccc(NC(=O)CN2C(=O)N/C(=C\c3ccc(N4CCOCC4)cc3)C2=O)c1,"inconclusive: 6.51 µM [activator, single point]"
4,COc1ccc(C(=O)NCC(=O)OCC(=O)c2ccc3c(c2)OCCO3)cc1,inactive
5,CCOc1cccc(C(=O)Nc2ccc3oc(-c4cccnc4)nc3c2)c1,active: 8.2 µM and active: 9.2 µM
6,COc1ccccc1NS(=O)(=O)c1cc(N2Cc3ccccc3C2=N)ccc1N1CCOCC1,"inconclusive: 9.2 µM [falling, partial curve, poor fit]"
7,Cc1nc(-c2ccc(S(=O)(=O)Nc3ccc(C)c(C)c3)s2)cs1,inactive
8,O=[N+]([O-])c1ccc(S(=O)(=O)N2CCN(Cc3ccco3)CC2)cc1,"inconclusive: 0.326 µM [activator, full curve, poor fit]"
9,CN(CCOc1ccc(Cl)cc1)C(=O)c1cc([N+](=O)[O-])ccc1N1CCOCC1,"inconclusive: 29.1 µM [falling, single point]"
10,O=C(NCCS(=O)(=O)c1ccc(Br)cc1)c1ccc(Cl)cc1,inactive
11,N#CC(=C(O)COC(=O)CCC1CCCCC1)c1nc2ccccc2[nH]1,inactive
12,COc1cc2[nH]c3c(N4CCN(c5ccc(Cl)cc5)CC4)ncnc3c2cc1OC,"inconclusive: 18.4 µM [falling, partial curve]"
13,Cc1cc(OC(=O)c2ccc(Cl)cc2Cl)c([N+](=O)[O-])c(=O)[nH]1,inactive
14,CS(=O)(=O)Nc1ccccc1C(=O)Nc1ccccc1Cl,inactive
15,COCCC(=O)N1CCC(Oc2ccc(C(=O)N3CCCCCCC3)cc2)CC1,"inconclusive: 14.6 µM [falling, partial curve, poor fit]"
16,CCN(CC)CCCNC(=O)c1cn(CCOC)c(=O)c2c1c1ccccc1n2C,inactive
17,CCCCSCCCNC(=O)c1cn(CC)c2ccc(S(=O)(=O)N3CCCCCC3)cc2c1=O,inactive
18,CCOCc1nnc(NC(=O)c2ccc(OC)cc2)s1,inactive
19,Cc1noc(C)c1S(=O)(=O)Nc1ccc(C(=O)Nc2ccc(Br)cc2)cc1,"inconclusive: 29.1 µM [falling, single point]"
20,COc1ccc(C(C)=O)cc1COC(=O)CCNS(=O)(=O)c1ccc(C(C)=O)cc1,inactive
21,COCCNC(=O)C(=O)NNC(=O)c1ccccc1OC,"inconclusive: 7.31 µM [activator, single point]"
22,O=C(NC(=S)Nc1ccc(Oc2ccccc2)cc1)c1ccc(Cl)cc1,active: 25.9 µM
23,Cc1ccc2[nH]c(=O)c(CN(Cc3cccs3)Cc3nnnn3Cc3ccccc3)cc2c1,"inconclusive: 23.1 µM [falling, single point]"
24,CCN(CC)c1ccc(NC(=O)CCCOc2cccc(C)c2)cc1,inactive

row,Compound,Potency
1,O=C(N/N=C/c1ccncc1)/C(=C/c1ccccc1)NC(=O)c1ccccc1,"inconclusive: 23.1 µM [activator, single point]"
2,O=C(NCCCNC(=O)c1ccc(-c2cc(Cl)ccc2Cl)o1)c1cnccn1,"inconclusive: 32.6 µM [falling, partial curve, poor fit]"
3,COc1ccc(OC)c(S(=O)(=O)Nc2ccc3c(c2)C(=O)OC3)c1,"inconclusive: 23.1 µM [falling, partial curve, poor fit]"
4,Cc1ccc(-c2noc(-c3ccc(N4CCCCC4)c([N+](=O)[O-])c3)n2)cc1,"inconclusive: 10.3 µM [activator, partial curve]"
5,CC(=O)NC(c1cc(Cl)c2ccccc2c1O)C(C)C (stereo not given),inactive
6,CC12CCC(=O)C=C1CCC1C2C(O)CC2(C)C1CCC2(O)C(=O)CO (stereo not given),active: 0.116 µM
7,O=C(N/N=C/c1ccc(F)cc1)c1c(O)c2ccccc2[nH]c1=O,inactive
8,CC(=O)c1ccc(NC(=O)COC(=O)C2CC3C=CC2C3)cc1 (stereo not given),"inconclusive: 23.1 µM [activator, single point]"
9,COc1ccc(NC(=O)c2noc3c2CCC3)cc1,"inconclusive: 2.31 µM [activator, partial curve, poor fit]"
10,C=CCn1cnc2c(c1=O)c1nc3ccccc3nc1n2/N=C/c1cccc(OC)c1OC,"inconclusive: 1.16 µM [falling, full curve]"
11,O=C(CCC(=O)N1CCN(Cc2ccccc2)CC1)Nc1nnc(C2CCCCC2)s1,"inconclusive: 29.1 µM [falling, single point]"
12,COc1ccc(CC(=O)OCC(=O)Nc2ccc(N3CCOCC3)cc2)cc1,"inconclusive: 29.1 µM [activator, single point]"
13,Cc1ccc(NC(=O)c2ccc(NS(=O)(=O)c3ccc4[nH]c(=O)[nH]c4c3)cc2)nc1,inactive
14,Cc1ccc(SC[C@H](CC(C)C)N2CCN(CCc3ccccc3)CCC2=O)cc1,"inconclusive: 4.61 µM [activator, single point]"
15,CN1C(=O)c2ccccc2Sc2ccc(NC(=O)N3CCN(c4ccccc4F)CC3)cc21,"inconclusive: 18.4 µM [falling, partial curve]"
16,COc1ccc(/C=N/NC(=O)Nc2nonc2N)cc1,"inconclusive: 9.2 µM [activator, partial curve, poor fit]"
17,CCOc1ccc(C(=O)Nc2cc(S(=O)(=O)Nc3ccccc3Cl)ccc2N2CCOCC2)cc1,"inconclusive: 29.1 µM [falling, single point]"
18,COCCCNC(=O)C1CCC(CNS(=O)(=O)c2ccc(Cl)cc2)CC1 (stereo not given),"inconclusive: 0.92 µM [falling, partial curve, poor fit]"
19,Cc1ccc(CCNc2ncnc(Cl)c2N)cc1,active: 3.66 µM
20,COc1ccc(NC(=O)CSc2nc(C3CC3)nc3ccccc23)cc1,"inconclusive: 0.461 µM [activator, partial curve, poor fit]"
21,COC(=O)c1c(NC(=O)Cc2cccs2)sc(C(=O)NC2CCCCC2)c1C,"inconclusive: 3.26 µM [activator, full curve, poor fit]"
22,CCCn1c(=O)c2c(nc3n2CCCN3CCc2ccccc2)n(C)c1=O,inactive
23,CSc1ccc(S(=O)(=O)NCCCOC(C)C)cc1,"inconclusive: 29.1 µM [falling, single point]"
24,COCCOC(=O)c1c(C)nc(SCC(=O)Nc2cccc3ccccc23)c(C#N)c1-c1ccco1,"inconclusive: 32.6 µM [falling, single point]"

# Look-ups from the list:
# CC12CCC(=O)C=C1CCC1C2C(O)CC2(C)C1CCC2(O)C(=O)CO (stereo not given) | Potency: active: 0.116 µM
# Cc1ccc(NC(=O)c2ccc(NS(=O)(=O)c3ccc4[nH]c(=O)[nH]c4c3)cc2)nc1 | Potency: inactive
# COC(=O)c1c(NC(=O)Cc2cccs2)sc(C(=O)NC2CCCCC2)c1C | Potency: inconclusive: 3.26 µM [activator, full curve, poor fit]

# (continued)

row,Compound,Potency
1,O=C(NCC1COc2ccccc2O1)c1cccc(S(=O)(=O)N2CCCCC2)c1 (stereo not given),"inconclusive: 29.1 µM [falling, single point]"
2,CCOc1ccc(CN(Cc2ccco2)C(c2cccs2)c2nnnn2C(C)(C)C)cc1 (stereo not given),"inconclusive: 1.64 µM [falling, partial curve, poor fit]"
3,COCc1nnc(NC(=O)C2CC(=O)N(c3ccc(C)c(Cl)c3)C2)s1 (stereo not given),inactive
4,Cc1nnc(NC(=O)c2ccc(S(=O)(=O)N3CCOCC3)cc2)s1,inactive
5,C/C(=N\O)c1ccc2c3ccccc3n(C)c2c1,"inconclusive: 29.1 µM [activator, single point]"
6,COc1ccc(-c2nc(C#N)c(NCCc3ccccc3)o2)cc1,inactive
7,O=C(c1ccccc1)N1CCN(S(=O)(=O)c2cccc(NS(=O)(=O)c3ccccc3)c2)CC1,inactive
8,CCc1ccc2nc(N3CCN(C(=O)C(C)(C)C)CC3)sc2c1,inactive
9,COc1ccc(S(=O)(=O)NCc2ccco2)cc1NC(=O)c1ccccc1,inactive
10,CCc1ccc(N(C(=O)c2ccco2)C(C(=O)NC2CCCC2)c2ccco2)cc1 (stereo not given),inactive
11,COc1cc(Cl)ccc1OCc1cc(C(=O)N(C)CCc2cnn(C)c2)no1,"inconclusive: 4.11 µM [activator, full curve]"
12,c1ccc2nc(-c3ccc(-n4ccnc4)cc3)ccc2c1,"inconclusive: 9.2 µM [activator, partial curve]"
13,O=C(CCC(=O)N1CCN(c2ccccc2F)CC1)N1CCN(c2ccc(F)cc2)CC1,"inconclusive: 13 µM [falling, partial curve]"
14,COc1ccc(C(C(=O)NCc2ccccc2)N(Cc2ccco2)C(=O)c2snc(C(N)=O)c2N)cc1OC (stereo not given),inactive
15,O=C(NCC(=O)N1CCCC(C(F)(F)F)C1)c1ccc(Oc2ccccc2)cc1 (stereo not given),"inconclusive: 10.3 µM [falling, partial curve]"
16,CCOC(=O)c1c(C)oc2nc(C)nc(N3CCN(c4ccccc4)CC3)c12,active: 23.1 µM
17,CCc1ccc(NC(=O)[C@H](Cc2c[nH]c3ccccc23)NC(=O)[C@@H]2Cc3ccccc3CN2)cc1,"inconclusive: 1.64 µM [activator, partial curve]"
18,Cc1cc(C)c(S(=O)(=O)c2ccccc2)c(OC(=O)c2c(Cl)cc(Cl)cc2Cl)n1,active: 16.4 µM
19,CCOc1ccc(/C(O)=C2\C(=O)C(=O)N(c3ccc(OC)cc3)C2c2ccccc2[N+](=O)[O-])cc1 (stereo not given),"inconclusive: 6.51 µM [activator, partial curve]"
20,O=C(Nc1ccc(F)cc1)c1cccn1-c1nnc(N2CCCCC2)s1,"inconclusive: 9.2 µM [activator, partial curve, poor fit]"
21,COc1ccc2oc(=O)c(C(=O)NCCc3c(C)[nH]c4ccc(Br)cc34)cc2c1,inactive
22,O=C(O)CCNc1ccc(NCCC(=O)O)c2c1C(=O)c1ccccc1C2=O,"inconclusive: 8.2 µM [falling, partial curve, poor fit]"
